{"sequences": {"note": "Chains of the proteins cited; added tags and fusions are not shown. Lines headed by an entry give the natural chain unless they say otherwise; changes in a name come on top.", "UniProt P18054": "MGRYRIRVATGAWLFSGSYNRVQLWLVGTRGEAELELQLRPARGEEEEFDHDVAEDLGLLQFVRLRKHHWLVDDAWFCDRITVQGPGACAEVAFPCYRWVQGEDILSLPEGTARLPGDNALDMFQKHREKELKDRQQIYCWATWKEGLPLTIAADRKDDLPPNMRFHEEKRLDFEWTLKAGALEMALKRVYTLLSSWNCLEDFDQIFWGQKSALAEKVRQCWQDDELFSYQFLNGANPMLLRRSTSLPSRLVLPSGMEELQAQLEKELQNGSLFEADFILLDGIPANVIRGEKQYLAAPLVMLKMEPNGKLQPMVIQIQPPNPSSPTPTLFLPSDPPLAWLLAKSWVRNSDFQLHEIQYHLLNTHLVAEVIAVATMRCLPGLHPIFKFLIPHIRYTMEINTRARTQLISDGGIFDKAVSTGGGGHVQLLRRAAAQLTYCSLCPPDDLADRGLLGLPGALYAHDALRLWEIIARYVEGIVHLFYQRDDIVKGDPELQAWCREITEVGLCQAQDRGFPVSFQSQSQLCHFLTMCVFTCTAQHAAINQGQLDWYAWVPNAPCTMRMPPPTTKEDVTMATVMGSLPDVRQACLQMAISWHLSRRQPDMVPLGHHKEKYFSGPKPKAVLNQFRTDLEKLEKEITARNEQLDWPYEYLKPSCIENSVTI"}, "source": "PubChem BioAssay AID1671190", "about": "(National Center for Advancing Translational Sciences (NCATS), 2021)", "note": "About 6,100 (1.1%) of roughly 580,000 compounds were called active. Inconclusive results, whose numbers are uncertain, are shown with a selection of clear calls. Calls come from the whole dose curve; as a rule, active = well fitted inhibition curve with a large enough effect; inconclusive = small, poorly fitted or top-dose-only effect, or another doubt; inactive = no such curve, though single readings can be large or run the other way. Potencies of inconclusive entries are doubtful fits and often do not repeat. % is set by controls: 0 for no effect and ±100 for the full control effect; potency is the fitted concentration of half-maximal effect."}
{"target": "Polyunsaturated fatty acid lipoxygenase ALOX12 (Homo sapiens) (UniProt P18054)", "assay": "Primary qHTS assay for inhibitors of human arachidonate 12S-lipoxygenase (ALOX12): Round 2", "details": "purified 12hLO, xylenol orange hydroperoxide absorbance; activity change, negative = inhibition: at 108 µM (top of the series) unless noted", "procedure,_shortened": "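Purified human 12hLO at 150 nM in 25 mM Hepes, 0.01% Triton X-100, pH 7.0, preincubated 15 min at room temperature with compound. Reaction started with 40 uM arachidonic acid, 30 min at room temperature. Hydroperoxide measured by Fe-xylenol orange, 573/405 nm absorbance ratio.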"}
{"compound": "Cc1ccnc(NS(=O)(=O)c2ccc(NC(=O)c3ccc(Br)o3)cc2)n1", "Potency": "inconclusive: 112 µM [inhibitor, single point]"}
{"compound": "COc1cc(OC)c(-c2c3cc(O)c(=O)cc-3oc3cc(O)c(O)cc23)cc1OC", "Potency": "inconclusive: 44.7 µM [inhibitor, partial curve, poor fit]"}
{"compound": "CCCCn1c(/C=C/c2ccco2)nc2ccccc21", "Potency": "inconclusive: 126 µM [inhibitor, partial curve, poor fit]"}
{"compound": "CCCN1C(=O)/C(=C/C=C2\\N(CC)c3ccccc3C2(C)C)SC1=S", "activity change, negative = inhibition": "inactive: -1.96%"}
{"compound": "CN(C)CCCOc1cccc(Cl)c1", "Potency": "inconclusive: 1.41 µM [inhibitor, full curve]"}
{"compound": "Cn1c(/C=C/c2ccccc2[N+](=O)[O-])nc2ccccc2c1=O", "activity change, negative = inhibition": "inactive: 3.57%"}
{"compound": "Cc1cccc2c(C(=O)O)c3cccc(C)c3nc12", "Potency": "inconclusive: 35.5 µM [inhibitor, partial curve, poor fit]"}
{"compound": "CC1(C(=O)Nc2cccc3ncccc23)CCN1C(=O)Cc1ccc(-c2ccccc2)cc1", "note": "(stereo not drawn)", "Potency": "inconclusive: 35.5 µM [inhibitor, single point]"}
{"compound": "O=C(C[n+]1cccc2ccccc21)c1ccc([N+](=O)[O-])cc1", "Potency": "inconclusive: 2.82 µM [inhibitor, full curve, poor fit]"}
{"compound": "COc1ccc(-n2nnnc2CNC(=O)c2ccc3ccccc3c2)cc1", "Potency": "inconclusive: 50.1 µM [inhibitor, partial curve, poor fit]"}
{"compound": "COc1ccc(O)c(-c2cc(-c3cccc(Br)c3)n[nH]2)c1", "Potency": "inconclusive: 44.7 µM [inhibitor, partial curve, poor fit]"}
{"compound": "COc1cc(C2c3c(-c4cc(Cl)c(C)cc4O)n[nH]c3C(=O)N2Cc2cccnc2)ccc1O", "note": "(stereo not drawn)", "Potency": "inactive"}
{"compound": "Cc1c(NC(=O)/C(=C/c2cccs2)NC(=O)c2ccccc2)c(=O)n(-c2ccccc2)n1C", "Potency": "inconclusive: 35.5 µM [inhibitor, partial curve, poor fit]"}
{"compound": "O=C(c1ccc(Cl)c(Cl)c1)c1cnc(Nc2ccccc2)s1", "activity change, negative = inhibition": "inconclusive: -36.6% [inhibitor]"}
{"compound": "O=C(CSc1nc2ccccc2o1)Nc1nc(-c2ccc(Br)cc2)cs1", "Potency": "inconclusive: 50.1 µM [inhibitor, partial curve, poor fit]"}
{"compound": "NC(=S)N/N=C/c1ccc(C(F)(F)F)cc1", "Potency": "inconclusive: 39.8 µM [inhibitor, partial curve]"}
{"compound": "O=C(Cn1cnc2c(nnn2-c2ccc(F)cc2)c1=O)NCc1ccco1", "activity change, negative = inhibition": "inactive: -6.17%"}
{"compound": "OC[C@@H]1CNC[C@H]1C1CCN(Cc2ccncc2F)CC1", "Potency": "inconclusive: 25.1 µM [inhibitor, partial curve, poor fit]"}
